The supplement of paper PMC12823440, “Inhibitors supercharge kinase turnover through native proteolytic circuits” (Nature, 2025)
Where a name gives a salt, the structure may show the parent alone. Some of the results follow. Hit calls seldom repeat between salt and free forms of one compound.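 Kinases, fused to nanoluciferase, were expressed in K562 cells; luminescence was measured every 4 h from 2 to 18 h as percent of control (DMSO = 100%, positive control = 0%). A time point is decreased if signal falls significantly (2 sigma). Hits were called by the authors by a rule that is not shown; the count of time points alone does not decide it.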

Protein sequences, listed by entry. Tags and fused reporters are not part of them. Lines headed by an entry give the natural chain unless they say otherwise; changes in a name come on top.
UniProt P42356, whole entry, looked up: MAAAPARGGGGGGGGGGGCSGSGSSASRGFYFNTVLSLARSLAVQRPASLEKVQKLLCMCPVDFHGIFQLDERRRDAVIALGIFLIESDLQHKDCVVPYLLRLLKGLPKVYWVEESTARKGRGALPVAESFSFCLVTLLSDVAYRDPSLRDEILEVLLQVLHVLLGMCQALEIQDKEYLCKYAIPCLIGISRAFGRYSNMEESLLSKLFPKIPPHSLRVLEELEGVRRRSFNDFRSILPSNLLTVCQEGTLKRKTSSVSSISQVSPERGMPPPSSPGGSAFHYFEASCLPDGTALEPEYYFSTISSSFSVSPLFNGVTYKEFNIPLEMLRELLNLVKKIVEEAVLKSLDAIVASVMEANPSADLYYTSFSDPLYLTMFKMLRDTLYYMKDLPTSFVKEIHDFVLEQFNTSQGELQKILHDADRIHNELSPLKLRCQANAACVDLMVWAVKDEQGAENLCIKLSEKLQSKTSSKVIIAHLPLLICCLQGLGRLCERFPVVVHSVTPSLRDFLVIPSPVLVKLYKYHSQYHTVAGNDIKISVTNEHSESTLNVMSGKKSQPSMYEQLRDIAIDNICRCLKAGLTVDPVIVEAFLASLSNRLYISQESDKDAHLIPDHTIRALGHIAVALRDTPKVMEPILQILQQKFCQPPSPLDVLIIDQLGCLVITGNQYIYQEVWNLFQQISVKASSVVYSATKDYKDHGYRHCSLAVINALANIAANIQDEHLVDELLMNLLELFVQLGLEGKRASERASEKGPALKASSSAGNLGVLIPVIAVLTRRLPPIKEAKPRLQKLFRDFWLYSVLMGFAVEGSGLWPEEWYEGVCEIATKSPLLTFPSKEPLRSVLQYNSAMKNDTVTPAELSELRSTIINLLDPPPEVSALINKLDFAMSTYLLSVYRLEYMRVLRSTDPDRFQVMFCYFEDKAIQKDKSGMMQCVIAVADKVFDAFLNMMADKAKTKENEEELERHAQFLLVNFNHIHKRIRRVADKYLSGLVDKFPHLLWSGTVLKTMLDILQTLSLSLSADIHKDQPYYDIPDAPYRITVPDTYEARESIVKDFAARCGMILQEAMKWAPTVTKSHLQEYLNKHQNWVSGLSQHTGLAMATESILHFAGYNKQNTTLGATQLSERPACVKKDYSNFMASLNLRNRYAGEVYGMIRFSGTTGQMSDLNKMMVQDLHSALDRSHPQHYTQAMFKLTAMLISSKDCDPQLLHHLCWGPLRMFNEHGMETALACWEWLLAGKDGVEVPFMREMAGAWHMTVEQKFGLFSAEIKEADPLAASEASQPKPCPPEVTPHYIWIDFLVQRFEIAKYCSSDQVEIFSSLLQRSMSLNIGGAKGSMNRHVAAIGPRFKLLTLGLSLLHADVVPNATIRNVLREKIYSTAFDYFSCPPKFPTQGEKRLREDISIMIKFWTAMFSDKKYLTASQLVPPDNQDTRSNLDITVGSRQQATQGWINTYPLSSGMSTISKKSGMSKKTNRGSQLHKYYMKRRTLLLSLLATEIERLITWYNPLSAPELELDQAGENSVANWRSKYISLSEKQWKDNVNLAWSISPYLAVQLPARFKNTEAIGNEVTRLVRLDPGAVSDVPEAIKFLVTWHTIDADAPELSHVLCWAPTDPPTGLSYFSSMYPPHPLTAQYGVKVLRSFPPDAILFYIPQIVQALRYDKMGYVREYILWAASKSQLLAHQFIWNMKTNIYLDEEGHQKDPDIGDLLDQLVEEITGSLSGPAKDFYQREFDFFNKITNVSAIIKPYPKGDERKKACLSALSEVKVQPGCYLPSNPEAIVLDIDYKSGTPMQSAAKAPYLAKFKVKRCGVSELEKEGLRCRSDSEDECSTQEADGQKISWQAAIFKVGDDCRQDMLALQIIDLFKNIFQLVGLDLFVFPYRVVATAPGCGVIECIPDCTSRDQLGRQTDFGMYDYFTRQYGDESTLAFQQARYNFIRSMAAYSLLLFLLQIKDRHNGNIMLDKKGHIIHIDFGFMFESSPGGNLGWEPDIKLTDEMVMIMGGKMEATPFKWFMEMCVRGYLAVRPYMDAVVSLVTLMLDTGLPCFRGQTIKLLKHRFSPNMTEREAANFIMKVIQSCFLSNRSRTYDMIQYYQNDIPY
UniProt Q9UBF8: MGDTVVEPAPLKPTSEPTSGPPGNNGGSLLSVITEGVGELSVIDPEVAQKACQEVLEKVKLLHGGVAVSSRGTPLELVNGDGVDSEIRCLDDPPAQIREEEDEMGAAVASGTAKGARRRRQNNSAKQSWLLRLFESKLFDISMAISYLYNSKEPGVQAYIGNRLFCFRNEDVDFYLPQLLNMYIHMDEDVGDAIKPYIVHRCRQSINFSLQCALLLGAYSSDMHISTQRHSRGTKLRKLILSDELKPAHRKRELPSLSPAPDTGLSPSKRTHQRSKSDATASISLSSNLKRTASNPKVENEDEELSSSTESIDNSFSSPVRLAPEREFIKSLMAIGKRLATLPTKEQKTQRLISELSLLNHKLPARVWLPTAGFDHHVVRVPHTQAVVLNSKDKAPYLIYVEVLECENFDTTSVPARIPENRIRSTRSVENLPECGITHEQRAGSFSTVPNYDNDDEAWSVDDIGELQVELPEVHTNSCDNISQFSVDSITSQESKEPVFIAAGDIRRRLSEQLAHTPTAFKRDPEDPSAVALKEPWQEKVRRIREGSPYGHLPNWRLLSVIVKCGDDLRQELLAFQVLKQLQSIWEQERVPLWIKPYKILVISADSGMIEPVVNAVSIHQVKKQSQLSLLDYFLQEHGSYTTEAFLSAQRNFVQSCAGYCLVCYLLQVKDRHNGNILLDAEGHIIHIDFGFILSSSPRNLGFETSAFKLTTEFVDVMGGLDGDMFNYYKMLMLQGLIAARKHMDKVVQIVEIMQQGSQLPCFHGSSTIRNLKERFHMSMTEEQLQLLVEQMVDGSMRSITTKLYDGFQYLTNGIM
UniProt P53350, whole entry: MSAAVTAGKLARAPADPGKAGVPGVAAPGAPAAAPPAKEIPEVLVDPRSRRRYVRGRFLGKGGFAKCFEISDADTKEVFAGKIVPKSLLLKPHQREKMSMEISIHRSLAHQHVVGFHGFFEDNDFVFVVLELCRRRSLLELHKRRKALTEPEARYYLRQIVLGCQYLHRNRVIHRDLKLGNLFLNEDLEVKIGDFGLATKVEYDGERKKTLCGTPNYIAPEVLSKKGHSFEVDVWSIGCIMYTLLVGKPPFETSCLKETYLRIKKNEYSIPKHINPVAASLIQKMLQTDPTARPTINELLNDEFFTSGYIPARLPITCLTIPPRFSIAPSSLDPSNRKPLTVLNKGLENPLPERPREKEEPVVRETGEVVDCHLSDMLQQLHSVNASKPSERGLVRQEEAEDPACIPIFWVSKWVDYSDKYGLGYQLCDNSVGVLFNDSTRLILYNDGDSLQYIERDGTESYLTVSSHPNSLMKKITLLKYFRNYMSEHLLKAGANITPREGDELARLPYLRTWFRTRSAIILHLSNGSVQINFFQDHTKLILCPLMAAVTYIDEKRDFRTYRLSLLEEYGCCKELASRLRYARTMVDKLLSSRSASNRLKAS
UniProt Q14289, whole entry, looked up: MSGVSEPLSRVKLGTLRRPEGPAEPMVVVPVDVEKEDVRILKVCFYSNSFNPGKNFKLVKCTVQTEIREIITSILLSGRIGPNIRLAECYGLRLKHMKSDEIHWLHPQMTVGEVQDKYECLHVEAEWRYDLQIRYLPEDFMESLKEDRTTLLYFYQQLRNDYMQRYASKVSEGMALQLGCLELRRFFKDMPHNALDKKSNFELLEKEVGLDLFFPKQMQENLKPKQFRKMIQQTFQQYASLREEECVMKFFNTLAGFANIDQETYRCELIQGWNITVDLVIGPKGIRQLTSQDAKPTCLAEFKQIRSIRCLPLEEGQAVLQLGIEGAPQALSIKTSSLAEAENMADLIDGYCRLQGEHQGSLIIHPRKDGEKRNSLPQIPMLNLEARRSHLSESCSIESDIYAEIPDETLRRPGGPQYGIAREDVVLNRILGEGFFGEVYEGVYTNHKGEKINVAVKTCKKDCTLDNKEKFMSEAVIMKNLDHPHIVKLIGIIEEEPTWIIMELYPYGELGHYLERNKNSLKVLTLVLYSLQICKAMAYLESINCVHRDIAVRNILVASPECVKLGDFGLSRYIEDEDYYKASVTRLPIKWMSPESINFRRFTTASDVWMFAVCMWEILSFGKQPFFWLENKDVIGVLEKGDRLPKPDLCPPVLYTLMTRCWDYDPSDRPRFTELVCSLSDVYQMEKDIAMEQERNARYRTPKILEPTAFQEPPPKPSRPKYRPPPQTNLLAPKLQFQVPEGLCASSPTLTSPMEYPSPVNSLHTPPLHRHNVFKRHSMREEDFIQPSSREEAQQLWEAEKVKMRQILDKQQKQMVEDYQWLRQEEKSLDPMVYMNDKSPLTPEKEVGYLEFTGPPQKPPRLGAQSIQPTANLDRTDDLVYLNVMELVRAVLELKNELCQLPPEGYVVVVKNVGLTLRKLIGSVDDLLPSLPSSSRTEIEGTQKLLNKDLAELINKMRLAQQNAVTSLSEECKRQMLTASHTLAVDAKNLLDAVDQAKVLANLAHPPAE
UniProt Q01974, whole entry: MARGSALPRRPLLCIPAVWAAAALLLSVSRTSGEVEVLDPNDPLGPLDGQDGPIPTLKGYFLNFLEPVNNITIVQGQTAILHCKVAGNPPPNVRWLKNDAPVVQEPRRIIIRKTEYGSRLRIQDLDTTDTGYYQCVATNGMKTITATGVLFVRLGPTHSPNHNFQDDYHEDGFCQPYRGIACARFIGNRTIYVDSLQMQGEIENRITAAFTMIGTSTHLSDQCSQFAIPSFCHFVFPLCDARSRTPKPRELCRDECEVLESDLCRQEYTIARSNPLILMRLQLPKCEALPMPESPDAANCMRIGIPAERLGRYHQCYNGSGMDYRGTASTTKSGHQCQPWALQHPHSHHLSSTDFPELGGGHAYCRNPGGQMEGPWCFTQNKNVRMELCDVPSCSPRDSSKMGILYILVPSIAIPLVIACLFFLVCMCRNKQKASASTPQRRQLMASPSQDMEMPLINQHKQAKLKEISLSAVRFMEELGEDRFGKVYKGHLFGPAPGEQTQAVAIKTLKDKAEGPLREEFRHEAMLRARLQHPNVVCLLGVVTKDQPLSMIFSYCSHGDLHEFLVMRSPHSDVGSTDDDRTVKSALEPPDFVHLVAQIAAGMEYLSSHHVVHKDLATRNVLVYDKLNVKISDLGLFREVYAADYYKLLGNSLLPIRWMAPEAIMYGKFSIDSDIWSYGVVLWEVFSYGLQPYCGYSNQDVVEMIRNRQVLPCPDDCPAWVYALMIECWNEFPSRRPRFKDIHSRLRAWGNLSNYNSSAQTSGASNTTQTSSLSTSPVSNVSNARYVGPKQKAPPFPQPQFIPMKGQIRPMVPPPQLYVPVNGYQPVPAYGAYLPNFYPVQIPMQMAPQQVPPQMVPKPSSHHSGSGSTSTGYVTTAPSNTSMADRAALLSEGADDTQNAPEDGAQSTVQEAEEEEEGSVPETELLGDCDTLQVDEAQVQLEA
UniProt Q15418, whole entry: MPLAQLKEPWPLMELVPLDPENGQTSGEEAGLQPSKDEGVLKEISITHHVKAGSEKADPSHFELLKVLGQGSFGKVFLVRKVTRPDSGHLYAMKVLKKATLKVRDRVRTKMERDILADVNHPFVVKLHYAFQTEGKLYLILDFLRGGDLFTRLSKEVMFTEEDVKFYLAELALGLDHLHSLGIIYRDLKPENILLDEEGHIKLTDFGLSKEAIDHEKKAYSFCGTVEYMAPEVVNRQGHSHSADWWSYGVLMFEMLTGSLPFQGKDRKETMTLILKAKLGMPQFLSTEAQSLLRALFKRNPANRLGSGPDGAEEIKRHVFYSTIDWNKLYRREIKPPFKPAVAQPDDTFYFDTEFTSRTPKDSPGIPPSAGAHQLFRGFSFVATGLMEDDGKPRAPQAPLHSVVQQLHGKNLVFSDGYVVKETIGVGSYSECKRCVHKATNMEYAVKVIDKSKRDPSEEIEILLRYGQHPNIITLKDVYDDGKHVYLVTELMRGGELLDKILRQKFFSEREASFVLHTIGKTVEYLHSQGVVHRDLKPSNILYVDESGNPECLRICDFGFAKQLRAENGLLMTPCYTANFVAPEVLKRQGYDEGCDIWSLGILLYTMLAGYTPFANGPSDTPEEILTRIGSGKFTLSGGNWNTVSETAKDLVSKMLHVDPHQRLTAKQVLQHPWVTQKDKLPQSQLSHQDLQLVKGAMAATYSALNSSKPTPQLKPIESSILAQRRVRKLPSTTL
UniProt Q9NYA1, whole entry: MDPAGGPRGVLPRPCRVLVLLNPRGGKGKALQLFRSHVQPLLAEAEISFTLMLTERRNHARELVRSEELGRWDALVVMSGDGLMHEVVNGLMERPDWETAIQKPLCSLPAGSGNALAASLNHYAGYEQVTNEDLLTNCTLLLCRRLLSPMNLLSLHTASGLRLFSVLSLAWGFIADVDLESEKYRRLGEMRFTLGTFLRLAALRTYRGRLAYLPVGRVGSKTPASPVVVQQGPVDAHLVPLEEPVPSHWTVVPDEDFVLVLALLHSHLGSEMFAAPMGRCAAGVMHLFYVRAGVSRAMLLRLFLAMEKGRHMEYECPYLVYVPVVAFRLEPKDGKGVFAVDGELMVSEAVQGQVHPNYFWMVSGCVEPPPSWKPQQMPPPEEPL

Legend:
Experiment in all cases: kinase-Nluc reporter destabilization hit call (1 = scored as downregulated) (binary); higher = compound decreases kinase abundance
Details in all cases: K562; 2-18 h
PDPK1 = PDPK1 (UniProt O15530)
PIK4CA = PIK4CA (UniProt P42356)
PIK4CB = PIK4CB (UniProt Q9UBF8)
PLK1 = PLK1 (UniProt P53350)
PRKAA1 = PRKAA1 (UniProt Q13131)
PRKCA = PRKCA (UniProt P17252)
PTK2 = PTK2 (UniProt Q05397)
PTK2B = PTK2B (UniProt Q14289)
RAF1 = RAF1 (UniProt P04049)
[1] = biological target: RAF1_S257L (clone: RAF1_mut) (UniProt P04049)
RET = RET (UniProt P07949)
[2] = biological target: RET_M918T (clone: RET_mut) (UniProt P07949)
RIOK1 = RIOK1 (UniProt Q9BRS2)
RIPK1 = RIPK1 (UniProt Q13546)
RIPK2 = RIPK2 (UniProt O43353)
ROR2 = ROR2 (UniProt Q01974)
RPS6KA1 = RPS6KA1 (UniProt Q15418)
SPHK1 = SPHK1 (UniProt Q9NYA1)
SRC = SRC (UniProt P12931)
STK24 = STK24 (UniProt Q9Y6E0)

Measured: kinase-Nluc reporter destabilization hit call

CCOc1ccccc1C=C1C(=O)Nc2ccccc21 (10 µM)
inactive: PDPK1 = 0 | PIK4CA 0 | PIK4CB 0 | PLK1 = 0 | PRKAA1 = 0 | PRKCA 0 | PTK2 = 0 | PTK2B 0 | RAF1 = 0 | [1] 0 | RET 0 | [2] 0 | RIOK1 = 0 | RIPK1 = 0 | RIPK2 = 0 | ROR2 = 0 | RPS6KA1 = 0 | SPHK1 = 0 | SRC 0 | STK24 = 0

CC1=C(CC(=O)O)c2cc(F)ccc2/C1=C\c1ccc(C(C)C)cc1 (10 µM)
inactive: PDPK1 = 0 | PIK4CA 0 | PIK4CB 0 | PLK1 = 0 | PRKAA1 = 0 | PRKCA 0 | PTK2 = 0 | PTK2B 0 | RAF1 = 0 | [1] 0 | RET 0 | [2] 0 | RIOK1 = 0 | RIPK1 = 0 | RIPK2 = 0 | ROR2 = 0 | RPS6KA1 = 0 | SPHK1 = 0 | SRC 0 | STK24 = 0

CN(C)Cc1cccc(N=C(c2ccccc2)c2c(O)[nH]c3cc(C(N)=O)ccc23)c1 (10 µM)
inactive: PDPK1 = 0 | PIK4CA 0 | PIK4CB 0 | PLK1 = 0 | PRKAA1 = 0 | PRKCA 0 | PTK2 = 0 | PTK2B 0 | RAF1 = 0 | [1] 0 | RET 0 | [2] 0 | RIOK1 = 0 | RIPK1 = 0 | RIPK2 = 0 | ROR2 = 0 | RPS6KA1 = 0 | SPHK1 = 0 | SRC 0 | STK24 = 0

CN1CCN(CCCNc2ncc(Cl)c(-c3cc4c(C(=O)NC5CC5)cccc4s3)n2)CC1 (10 µM)
inactive: PDPK1 = 0 | PIK4CA 0 | PIK4CB 0 | PLK1 = 0 | PRKAA1 = 0 | PRKCA 0 | PTK2 = 0 | PTK2B 0 | RAF1 = 0 | [1] 0 | RET 0 | [2] 0 | RIOK1 = 0 | RIPK1 = 0 | RIPK2 = 0 | ROR2 = 0 | RPS6KA1 = 0 | SPHK1 = 0 | SRC 0 | STK24 = 0

Fc1c(Br)cccc1Nc1ncnc2cc3c(cc12)OCCO3 (2.5 µM)
inactive: PDPK1 = 0 | PIK4CA 0 | PIK4CB 0 | PLK1 = 0 | PRKAA1 = 0 | PRKCA 0 | PTK2 = 0 | PTK2B 0 | RAF1 = 0 | [1] 0 | RET 0 | [2] 0 | RIOK1 = 0 | RIPK1 = 0 | RIPK2 = 0 | ROR2 = 0 | RPS6KA1 = 0 | SPHK1 = 0 | SRC 0 | STK24 = 0

Nc1n[nH]c2cc(-c3ccc(=O)n(Cc4cccc(Cl)c4)c3)ccc12 (10 µM)
inactive: PDPK1 = 0 | PIK4CA 0 | PIK4CB 0 | PLK1 = 0 | PRKAA1 = 0 | PRKCA 0 | PTK2 = 0 | PTK2B 0 | RAF1 = 0 | [1] 0 | RET 0 | [2] 0 | RIOK1 = 0 | RIPK1 = 0 | RIPK2 = 0 | ROR2 = 0 | RPS6KA1 = 0 | SPHK1 = 0 | SRC 0 | STK24 = 0

CN1CC[C@H](c2c(O)cc(O)c3c(=O)cc(-c4ccc(C(F)(F)F)cc4Cl)oc23)[C@H]1CO [(2S,3R)-Voruciclib (hydrochloride)] (2.5 µM)
inactive: PDPK1 = 0 | PIK4CA 0 | PIK4CB 0 | PLK1 = 0 | PRKAA1 = 0 | PRKCA 0 | PTK2 = 0 | PTK2B 0 | RAF1 = 0 | [1] 0 | RET 0 | [2] 0 | RIOK1 = 0 | RIPK1 = 0 | RIPK2 = 0 | ROR2 = 0 | RPS6KA1 = 0 | SPHK1 = 0 | SRC 0 | STK24 = 0

CC(C)(C)Cn1c(N)nc2ccc(-c3[nH]c(C(C)(C)C)nc3-c3ccc(F)cc3)nc21 [Ralimetinib dimesylate] (2.5 µM)
inactive: PDPK1 = 0 | PIK4CA 0 | PIK4CB 0 | PLK1 = 0 | PRKAA1 = 0 | PRKCA 0 | PTK2 = 0 | PTK2B 0 | RAF1 = 0 | [1] 0 | RET 0 | [2] 0 | RIOK1 = 0 | RIPK1 = 0 | RIPK2 = 0 | ROR2 = 0 | RPS6KA1 = 0 | SPHK1 = 0 | SRC 0 | STK24 = 0

CC1(COc2ccc3c(c2)ncn3-c2ccc3cccc(N4CCC(N)CC4)c3n2)COC1 [Crenolanib] (2.5 µM)
inactive: PDPK1 = 0 | PIK4CA 0 | PIK4CB 0 | PLK1 = 0 | PRKAA1 = 0 | PRKCA 0 | PTK2 = 0 | PTK2B 0 | RAF1 = 0 | [1] 0 | RET 0 | [2] 0 | RIOK1 = 0 | RIPK1 = 0 | RIPK2 = 0 | ROR2 = 0 | RPS6KA1 = 0 | SPHK1 = 0 | SRC 0 | STK24 = 0

COc1ccc2c(c1)c(C1=C(c3c[nH]c4ccccc34)C(=O)NC1=O)cn2CCCN(C)C (10 µM)
inactive: PDPK1 = 0 | PIK4CA 0 | PIK4CB 0 | PLK1 = 0 | PRKAA1 = 0 | PRKCA 0 | PTK2 = 0 | PTK2B 0 | RAF1 = 0 | [1] 0 | RET 0 | [2] 0 | RIOK1 = 0 | RIPK1 = 0 | RIPK2 = 0 | ROR2 = 0 | RPS6KA1 = 0 | SPHK1 = 0 | SRC 0 | STK24 = 0

Arranged by molar mass (descending): 3 of the compounds above.
CN1CCN(CCCNc2ncc(Cl)c(-c3cc4c(C(=O)NC5CC5)cccc4s3)n2)CC1 (10 µM)
inactive: PDPK1 = 0 | PIK4CA 0 | PIK4CB 0 | PLK1 = 0 | PRKAA1 = 0 | PRKCA 0 | PTK2 = 0 | PTK2B 0 | RAF1 = 0 | [1] 0 | RET 0 | [2] 0 | RIOK1 = 0 | RIPK1 = 0 | RIPK2 = 0 | ROR2 = 0 | RPS6KA1 = 0 | SPHK1 = 0 | SRC 0 | STK24 = 0

Fc1c(Br)cccc1Nc1ncnc2cc3c(cc12)OCCO3 (2.5 µM)
inactive: PDPK1 = 0 | PIK4CA 0 | PIK4CB 0 | PLK1 = 0 | PRKAA1 = 0 | PRKCA 0 | PTK2 = 0 | PTK2B 0 | RAF1 = 0 | [1] 0 | RET 0 | [2] 0 | RIOK1 = 0 | RIPK1 = 0 | RIPK2 = 0 | ROR2 = 0 | RPS6KA1 = 0 | SPHK1 = 0 | SRC 0 | STK24 = 0

CC1=C(CC(=O)O)c2cc(F)ccc2/C1=C\c1ccc(C(C)C)cc1 (10 µM)
inactive: PDPK1 = 0 | PIK4CA 0 | PIK4CB 0 | PLK1 = 0 | PRKAA1 = 0 | PRKCA 0 | PTK2 = 0 | PTK2B 0 | RAF1 = 0 | [1] 0 | RET 0 | [2] 0 | RIOK1 = 0 | RIPK1 = 0 | RIPK2 = 0 | ROR2 = 0 | RPS6KA1 = 0 | SPHK1 = 0 | SRC 0 | STK24 = 0

Following part

O=C1NC(=O)C(=Cc2ccc3c(c2)OCO3)S1 (10 µM)
inactive: PDPK1 = 0 | PIK4CA 0 | PIK4CB 0 | PLK1 = 0 | PRKAA1 = 0 | PRKCA 0 | PTK2 = 0 | PTK2B 0 | RAF1 = 0 | [1] 0 | RET 0 | [2] 0 | RIOK1 = 0 | RIPK1 = 0 | RIPK2 = 0 | ROR2 = 0 | RPS6KA1 = 0 | SPHK1 = 0 | SRC 0 | STK24 = 0

c1cc(-c2cnn3cc(-c4ccc(N5CCNCC5)cc4)cnc23)c2cccnc2c1 (2.5 µM)
inactive: PDPK1 = 0 | PIK4CA 0 | PIK4CB 0 | PLK1 = 0 | PRKAA1 = 0 | PRKCA 0 | PTK2 = 0 | PTK2B 0 | RAF1 = 0 | [1] 0 | RET 0 | [2] 0 | RIOK1 = 0 | RIPK1 = 0 | RIPK2 = 0 | ROR2 = 0 | RPS6KA1 = 0 | SPHK1 = 0 | SRC 0 | STK24 = 0

O=[N+]([O-])c1ccc(Sc2cccc[n+]2[O-])c2nonc12 (2.5 µM)
inactive: PDPK1 = 0 | PIK4CA 0 | PIK4CB 0 | PLK1 = 0 | PRKAA1 = 0 | PRKCA 0 | PTK2 = 0 | PTK2B 0 | RAF1 = 0 | [1] 0 | RET 0 | [2] 0 | RIOK1 = 0 | RIPK1 = 0 | RIPK2 = 0 | ROR2 = 0 | RPS6KA1 = 0 | SPHK1 = 0 | SRC 0 | STK24 = 0

CC1=C(C(=O)Nc2ccc3[nH]ncc3c2)C(c2ccc(F)cc2)NC(=O)N1 (stereo not given) (10 µM)
inactive: PDPK1 = 0 | PIK4CA 0 | PIK4CB 0 | PLK1 = 0 | PRKAA1 = 0 | PRKCA 0 | PTK2 = 0 | PTK2B 0 | RAF1 = 0 | [1] 0 | RET 0 | [2] 0 | RIOK1 = 0 | RIPK1 = 0 | RIPK2 = 0 | ROR2 = 0 | RPS6KA1 = 0 | SPHK1 = 0 | SRC 0 | STK24 = 0

CCN1C(=O)CNc2ncc(-c3ccc(-c4nc[nH]n4)nc3C)nc21 [CC-115 (hydrochloride)] (2.5 µM)
inactive: PDPK1 = 0 | PIK4CA 0 | PIK4CB 0 | PLK1 = 0 | PRKAA1 = 0 | PRKCA 0 | PTK2 = 0 | PTK2B 0 | RAF1 = 0 | [1] 0 | RET 0 | [2] 0 | RIOK1 = 0 | RIPK1 = 0 | RIPK2 = 0 | ROR2 = 0 | RPS6KA1 = 0 | SPHK1 = 0 | SRC 0 | STK24 = 0

CC(=O)Nc1nc(C)c(-c2nc(N3CCCC(O)C3)no2)s1 (stereo not given) (10 µM)
inactive: PDPK1 = 0 | PIK4CA 0 | PIK4CB 0 | PLK1 = 0 | PRKAA1 = 0 | PRKCA 0 | PTK2 = 0 | PTK2B 0 | RAF1 = 0 | [1] 0 | RET 0 | [2] 0 | RIOK1 = 0 | RIPK1 = 0 | RIPK2 = 0 | ROR2 = 0 | RPS6KA1 = 0 | SPHK1 = 0 | SRC 0 | STK24 = 0

CN(CC(=O)N(Cc1ccc(C2CCCCC2)cc1)c1ccc(C(=O)O)c(O)c1)S(=O)(=O)c1c(F)c(F)c(F)c(F)c1F (2.5 µM)
inactive: PDPK1 = 0 | PIK4CA 0 | PIK4CB 0 | PLK1 = 0 | PRKAA1 = 0 | PRKCA 0 | PTK2 = 0 | PTK2B 0 | RAF1 = 0 | [1] 0 | RET 0 | [2] 0 | RIOK1 = 0 | RIPK1 = 0 | RIPK2 = 0 | ROR2 = 0 | RPS6KA1 = 0 | SPHK1 = 0 | SRC 0 | STK24 = 0
